Laboratory results: PubChem BioAssay AID1259331 (Drosophila RNAi Screening Center, 2017)
Here is an unselected part of about 3,100 deposited reagents. Over the whole deposit, 126 (4.1%) were called active. 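Calls are per reagent; zinc was so toxic that few knock-downs lowered ATP further, so most hits raise ATP.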 The raw values are shown without normalisation. Not stated in the record: the amount of reagent.

Aim: 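Knock-downs that alter ATP level after a high zinc chloride dose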 (primary screen)
Cells: Drosophila S2R+ cells
Reagent: long dsRNA against Drosophila genes
Duration: 5 days (4 days knock-down, then 1 day zinc)
Conditions: zinc chloride at 15 mM final level for 1 day
Read-out: 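Luminescent ATP assay standing in for viability; Z score is the mean over three replicate plates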
Reading the numbers: mean Z score: higher = more ATP than other wells, better survival under zinc; ATP luminescence: higher = more ATP, more viable cells
Rule for the call: 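a reagent is called a hit when its Z score is above 1.5 or below -1.5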
Calls: active = hit, ATP up or down; inactive = not a hit

| gene | amplicon | mean Z score | ATP luminescence, replicate 1 | ATP luminescence, replicate 2 | call |
| --- | --- | --- | --- | --- | --- |
| Orai | DRSC22061 | 0.283 | 47360 | 53883 | inactive |
| Orai | DRSC39837 | 0.0637 | 56135 | 58163 | inactive |
| CngA | DRSC07362 | 0.122 | 77354 | 74764 | inactive |
| pasi2 | DRSC16380 | -0.342 | 41239 | 55728 | inactive |
| pasi2 | DRSC39713 | 1.54 | 76719 | 84598 | active |
| Pex13 | DRSC06877 | -0.505 | 25793 | 29805 | inactive |
| hoe2 | DRSC00459 | -0.674 | 37073 | 37947 | inactive |
| hoe2 | DRSC39471 | -0.266 | 48732 | 44702 | inactive |
| Syt1 | DRSC00158 | -0.344 | 38599 | 37193 | inactive |
| Syt1 | DRSC00840 | 0.0734 | 57820 | 56654 | inactive |
| Syt1 | DRSC22077 | -0.45 | 46468 | 38959 | inactive |
| Syt1 | DRSC27456 | -0.191 | 59912 | 50841 | inactive |
| NijB | DRSC09850 | 0.766 | 40536 | 37292 | inactive |
| NijB | DRSC39587 | -0.0524 | 61609 | 56534 | inactive |
| CG30048 | DRSC22205 | 0.528 | 57305 | 52572 | inactive |
| CG30048 | DRSC39886 | 0.199 | 55659 | 75656 | inactive |
| Hgsnat | DRSC18405 | -0.214 | 41535 | 43228 | inactive |
| Hgsnat | DRSC24716 | -0.615 | 45525 | 41719 | inactive |
| Or59b | DRSC04632 | 0.358 | 57408 | 44342 | inactive |
| CG10444 | DRSC05990 | -0.672 | 25005 | 27751 | inactive |
| CG10444 | DRSC39598 | -0.676 | 51355 | 49692 | inactive |
| Nrt | DRSC11237 | 0.746 | 35716 | 38873 | inactive |
| CG43693 | DRSC09086 | -0.0591 | 41548 | 43348 | inactive |
| CG43693 | DRSC10625 | -0.556 | 27302 | 29496 | inactive |
| pcx | DRSC18188 | -0.293 | 35170 | 43725 | inactive |
| pcx | DRSC18189 | -0.926 | 52521 | 48817 | inactive |
| mAChR-A | DRSC28262 | -0.0264 | 61249 | 60718 | inactive |
| CG7530 | DRSC25476 | 0.0352 | 58077 | 56568 | inactive |
| CG7530 | DRSC39584 | -0.0583 | 55693 | 53841 | inactive |
| sll | DRSC16271 | 0.531 | 48817 | 54133 | inactive |
| sll | DRSC29864 | 0.272 | 50995 | 51218 | inactive |
| CG13229 | DRSC06349 | 0.396 | 77027 | 82482 | inactive |
| GluRIA | DRSC11176 | -0.216 | 75051 | 56722 | inactive |
| CG31106 | DRSC14655 | -0.0595 | 36370 | 57417 | inactive |
| eloF | DRSC15162 | -0.288 | 35959 | 54819 | inactive |
| eloF | DRSC25406 | 0.732 | 54373 | 91300 | inactive |
| Lgr4 | DRSC18970 | -0.151 | 68761 | 63531 | inactive |
| Lgr4 | DRSC19884 | 0.025 | 66926 | 65991 | inactive |
| Lgr4 | DRSC24434 | 0.325 | 65489 | 59500 | inactive |
| CG12061 | DRSC20715 | -0.211 | 38816 | 42574 | inactive |
| CG12061 | DRSC39829 | -0.135 | 50995 | 57832 | inactive |
| kkv | DRSC12315 | 0.227 | 37519 | 30573 | inactive |
| ACXA | DRSC25338 | -0.0636 | 55573 | 53519 | inactive |
| ACXA | DRSC39549 | 0.0391 | 58643 | 62621 | inactive |
| Gr43a | DRSC06658 | -0.0615 | 73786 | 69944 | inactive |
| Gr43a | DRSC39580 | -0.305 | 55213 | 55165 | inactive |

4 entries from above, sorted by “ATP luminescence, replicate 2”, highest first:
| gene | amplicon | mean Z score | ATP luminescence, replicate 1 | ATP luminescence, replicate 2 | call |
| --- | --- | --- | --- | --- | --- |
| NijB | DRSC39587 | -0.0524 | 61609 | 56534 | inactive |
| Syt1 | DRSC27456 | -0.191 | 59912 | 50841 | inactive |
| Syt1 | DRSC22077 | -0.45 | 46468 | 38959 | inactive |
| NijB | DRSC09850 | 0.766 | 40536 | 37292 | inactive |
